We go through one molecule from patent US20230158068A1 (priority 2020, published 2023).

Structures are written as SMILES.

This data set concerns U937 cells. As to conditions: amiodarone 10 μM; U937 cells with no, 5 nM or 100 nM PMA for 24 h or 72 h.

Turning to `CCCCc1oc2ccccc2c1C(=O)c1cc(I)c(OCCN(CC)CC)c(I)c1` [amiodarone], the “cell functionality to amiodarone (phospholipidosis, LipidTOX fluorescence)” value is recorded as “maintained after differentiation”.
